Results from one PubChem assay

From PubChem BioAssay record AID1159506 (NCATS, 2015).

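Genome-wide siRNA knockdown in TC32 Ewing sarcoma cells, comparing luciferase light from an NR0B1-promoter reporter with a CMV-promoter reporter 48 hours after transfection.
Each siRNA was applied at 20 nM.
A z-score of the log NR0B1-over-CMV signal, less the median of siRNAs with the same seed; more negative means a stronger specific loss of the NR0B1 reporter.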

The strongest results of the screen are mostly left out here.
Sequences are the guide (antisense) strand, without overhang.

* AAUGCUUUCAGGCCCGUCC against PGPEP1 : seed-corrected z-score -1.722
* UCUAUAGCUACAAUGACCG against ABCC9 : seed-corrected z-score -0.4622
* UACGGCAUUGUGGAUCUCC against VPS9D1 : seed-corrected z-score -0.2476
* UCUUAAACAGGGUCUCUGG against KCNF1 : seed-corrected z-score 0.876
* AUAGGCUAUAGGUUCUUCC against PTPRO : seed-corrected z-score -1.138
* AACUUUUGCAAUCUCUUCG against TMED10 : seed-corrected z-score -0.6077
* GGAAAUUUCACUCCGCUUC against TMSB10 : seed-corrected z-score 0.7561
* UGUUAGUCCCAUUCUGACU against NPFFR1 : seed-corrected z-score -0.7577
* UUAGUUAUCAAGCGUAGUG against LOC729040 : seed-corrected z-score -1.016
* UAAGCGGAUUGCAUUCUCC against SVIL : seed-corrected z-score 0.4929
* UAAGGAGACUGUAUGAUGG against SNTB1 : seed-corrected z-score -0.3582
* UUACAUACUAGCUAGAUGC against LOC440313 : seed-corrected z-score 1.396
* UUCUUUACAUGCUUCUCGC against RASAL3 : seed-corrected z-score 0.773
* UCUAGUCCUUCAAUGAUGC against HEY1 : seed-corrected z-score 0.5146
* AAACUCGUAGAUUUUAUGU against IRF3 : seed-corrected z-score -0.2833
* UGACUUGUUCCCGAUCAGC against RAB43 : seed-corrected z-score -0.1293
* UUUUCGCUCCCACUUCUGC against PRSS23 : seed-corrected z-score -0.02273
* ACAAGGACAAAAGGCAGGC against HTR6 : seed-corrected z-score 2.74
* UACUACUUGAGGAUCCUGC against NFX1 : seed-corrected z-score 0.757
* UGGAGAGUUAGGAAAUUCC against HHIP : seed-corrected z-score 0.6491
* UUUAAGUACCGGCAUCUCG against RASSF2 : seed-corrected z-score -1.053
* AUAAUGGUCAGAAAAGUGG against CALML4 : seed-corrected z-score -1.485
* UUCUUAUUCCUCAUAAAUG against PPP1R36 : seed-corrected z-score 1.3
* UUGUUACCCUCAACCAUGG against RPL23AP2 : seed-corrected z-score -0.7888
* UCUGGCUCAUGUGGAGACC against SFTPC : seed-corrected z-score -0.2373
* UCCUUGUUGACAGCAAUAG against RTKN : seed-corrected z-score 0.06959
* AUAGAGAGGAGUUUUGUCC against MED27 : seed-corrected z-score 0.1565
* AAUUCGGUAACUGUCAACC against ACACB : seed-corrected z-score 0.3333
* AUUGGUGUAACAUUAGUCC against KLHL12 : seed-corrected z-score 0.7921
* UUUGUAGUCUUGGAGUUUG against OR2D3 : seed-corrected z-score -0.04614
* UUAGCAGUGGGUCUAAAGC against STK24 : seed-corrected z-score 0.1261
* UCAGUAUGAACCGUGUAGC against TECRL : seed-corrected z-score 0.4792
* AUGAAUUCAGUGAUGGUGG against OR1S2 : seed-corrected z-score 0.2991
* UAAGGCGGAAGUGAAAGUC against OAZ3 : seed-corrected z-score -0.3748

The last 3 entries again:

strand,gene,seed-corrected z-score
UCAGUAUGAACCGUGUAGC,TECRL,0.4792
AUGAAUUCAGUGAUGGUGG,OR1S2,0.2991
UAAGGCGGAAGUGAAAGUC,OAZ3,-0.3748